Results are given in words; binding and its absence hold for the method and conditions named. In cells and extracts the contact can be indirect. Some binding calls cover weakened binding; strength is not graded here.

Chains of the proteins cited; added tags and fusions are not shown.
UniProt P05429: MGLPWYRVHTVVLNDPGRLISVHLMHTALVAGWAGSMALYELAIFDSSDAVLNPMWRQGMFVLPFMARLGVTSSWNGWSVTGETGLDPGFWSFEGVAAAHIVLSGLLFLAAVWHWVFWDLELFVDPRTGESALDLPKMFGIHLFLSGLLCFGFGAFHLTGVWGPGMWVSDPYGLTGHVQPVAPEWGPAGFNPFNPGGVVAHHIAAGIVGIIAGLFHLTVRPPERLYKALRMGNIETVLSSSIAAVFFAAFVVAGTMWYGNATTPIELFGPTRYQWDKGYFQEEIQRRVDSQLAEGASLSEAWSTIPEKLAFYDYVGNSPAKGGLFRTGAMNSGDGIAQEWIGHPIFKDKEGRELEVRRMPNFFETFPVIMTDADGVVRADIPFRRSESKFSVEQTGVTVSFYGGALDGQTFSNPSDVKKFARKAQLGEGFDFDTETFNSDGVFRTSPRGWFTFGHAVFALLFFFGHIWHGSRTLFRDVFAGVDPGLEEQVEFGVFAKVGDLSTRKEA

This test deals with His-tagged CP47 (PSII core antenna protein CP47) (Synechocystis sp. PCC 6803) (UniProt P05429). In words: pull-down.

B1: Psb27 (PSII assembly factor) (protein, UniProt P74367 25-134)
chain: CDSGTGLTGNYSQDTLTVIATLREAIDLPQDAPNRQEVQDTARGQINDYISRYRRKGDAGGLKSFTTMQTALNSLAGYYTSYGARPIPEKLKKRLQLEFTQAERSIERGV
Turning to B1, the binding result was “binds”.

The values are drawn from paper doi:10.1101/660712.
